Source: patent US20260071252A1, “REVERSIBLE NANOPARTICLE AGGREGATES AND METHODS FOR DETECTING PROTEASES” (The Regents of the University of California, priority 2022, published 2026)
Some of these results come from one statement about several compounds together.

Test: Peptide-enabled dissociation of RRK-induced AuNP aggregates
Description: After inducing AuNP aggregates by the RRK peptides, the A1 peptides with different concentrations from 7 to 300 μM were used to dissociate AuNP aggregates. The plasmonic resonance peak of AuNP aggregates blue shifted to 520 nm after particle dissociation. (FIG. 37b). The hydrodynamic diameter of AuNP aggregates (greater than (>) 1 μm) was reduced to 27±0.07 nm, and the surface charge of AuNPs was—13.4±1.03 mV because of surface modification with neutral charged A1 peptides (150 μM) and residual citrates (FIG. 37c). Particle dissociation induced color change from blue to red and a decrease in size as confirmed by time-dependent photographs, multi-laser wavelength nanoparticle tracking analysis (M-NTA), and TEM (FIG. 37d-e and FIG. 45A-C).
To further study the role of each amino acid in the A1 peptide, we synthesized eight peptide sequences (from A2 to A8) for control experiments (FIG. 46A-H). Table 1 includes peptide sequence, net charge, critical dissociation concentrations (CDC), and design rationale. First, we replaced Cys residue with Gly (i.e., A2) to confirm the role of the anchoring group. […] Second, we hypothesized that negatively charged EE residues were required for particle dissociation because they provide electrostatic repulsions for citrate-coated AuNPs.
Briefly, 10 μM of RRK peptide was used to aggregate 100 μL of AuNPs (conc approximately 3.6 nM). The particle aggregation rapidly occurred (less than 10 s), changing color from red to blue. Then the desired dissociation peptides were used to dissociate the AuNP aggregates. It is notable that these exemplary AuNPs are stabilized by citrate. Different surface ligands (for example, BSPP) and different sizes (40 or 60 nm) require different amounts of RRK peptide for particle aggregation.
Briefly, RRK peptides (8-10 μM) was first used to trigger AuNP aggregation in distilled water. The sample was centrifuged at […] for 5 min to remove the supernatant. Then, the pellet was re-dispersed in 100% human saliva, plasma, urine, and seawater. After re-dispersion, the desired amounts of dissociation peptide were used to dissociate AuNPs aggregates in different matrixes. […] The experiment was performed with three replicates, and the microplate reader was used to measure spectral scanning from 300 to 900 nm before and after dissociation. The ratiometric signal (λ520/λ700) was referred as dissociation. The data was blanked to remove background signal.
For Ace-EEKKAAC-Am [Peptide A10], the “time for dissociation, color from blue to red” value (“time for dissociation, color” below) was ≤ 10 min. For Ace-EEKKC-Am [Peptide A9], the “time for dissociation, color” value was ≤ 10 min. With “Ace-EEKKGGC-Am (N-acetyl, C-terminal amide) [Peptide A11]” the “time for dissociation, color” value was ≤ 10 min. For Ace-EEKKPPC-Am [Peptide A1], the “time for dissociation, color” value was ≤ 10 min.
